Measured values: the M2OR odorant receptor database
The list shows a part of the results, in another mix than the full data. Calls are pooled over several reports, among them a noisy single-well screen. The list shows a part of the results.

Experiments:
Details in all cases: stereoisomer not certain
OR4X1 = system: T1, OR4X1
T1 sequence (whole entry): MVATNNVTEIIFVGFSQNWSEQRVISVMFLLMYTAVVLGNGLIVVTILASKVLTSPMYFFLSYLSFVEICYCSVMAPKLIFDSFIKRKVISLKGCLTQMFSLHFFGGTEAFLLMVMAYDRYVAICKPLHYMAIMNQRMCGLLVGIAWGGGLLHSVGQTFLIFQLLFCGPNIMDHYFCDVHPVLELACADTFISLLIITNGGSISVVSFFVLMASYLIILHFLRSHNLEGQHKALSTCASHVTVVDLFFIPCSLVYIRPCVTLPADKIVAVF
Procedure, shortened: (§1)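 Values were gathered from published papers (main text and supplementary material), with extra details requested from the original authors when needed, and checked for typos and inconsistencies. Each receptor–molecule pair is called responsive (active) if the original authors judged the measured signal statistically different from baseline, and non-responsive (inactive) otherwise. Assay methods varied by source, often transient mammalian cell-line luciferase assays. Recorded details include cell line, G-protein, co-transfected protein and tags.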

OR4X2 (Homo sapiens) = biological target: T2, OR4X2 (Homo sapiens) (UniProt Q8NGF9)
T2 sequence (whole entry): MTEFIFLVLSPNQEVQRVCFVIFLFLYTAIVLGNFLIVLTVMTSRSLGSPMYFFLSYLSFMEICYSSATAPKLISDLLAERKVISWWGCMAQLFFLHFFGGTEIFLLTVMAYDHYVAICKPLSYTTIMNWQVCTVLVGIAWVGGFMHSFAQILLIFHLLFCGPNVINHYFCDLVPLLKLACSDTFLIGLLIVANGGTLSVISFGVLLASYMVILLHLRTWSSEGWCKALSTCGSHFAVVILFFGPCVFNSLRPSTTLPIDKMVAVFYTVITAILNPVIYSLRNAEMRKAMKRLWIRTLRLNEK
Procedure, shortened: as §1

OR51A2 (Homo sapiens) = biological target: T3, OR51A2 (Homo sapiens) (UniProt Q8NGJ7)
T3 sequence (whole entry): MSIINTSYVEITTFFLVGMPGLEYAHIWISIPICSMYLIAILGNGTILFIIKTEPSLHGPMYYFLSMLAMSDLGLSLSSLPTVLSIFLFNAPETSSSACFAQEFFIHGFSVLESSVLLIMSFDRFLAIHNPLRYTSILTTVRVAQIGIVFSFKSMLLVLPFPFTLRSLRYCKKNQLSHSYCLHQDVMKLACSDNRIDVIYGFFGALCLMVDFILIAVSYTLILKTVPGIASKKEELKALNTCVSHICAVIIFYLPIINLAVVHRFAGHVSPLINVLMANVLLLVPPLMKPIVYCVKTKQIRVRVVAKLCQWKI
Procedure, shortened: as §1

OR51B2 (Homo sapiens) = biological target: T4, OR51B2 (Homo sapiens) (UniProt Q9Y5P1)
T4 sequence (whole entry): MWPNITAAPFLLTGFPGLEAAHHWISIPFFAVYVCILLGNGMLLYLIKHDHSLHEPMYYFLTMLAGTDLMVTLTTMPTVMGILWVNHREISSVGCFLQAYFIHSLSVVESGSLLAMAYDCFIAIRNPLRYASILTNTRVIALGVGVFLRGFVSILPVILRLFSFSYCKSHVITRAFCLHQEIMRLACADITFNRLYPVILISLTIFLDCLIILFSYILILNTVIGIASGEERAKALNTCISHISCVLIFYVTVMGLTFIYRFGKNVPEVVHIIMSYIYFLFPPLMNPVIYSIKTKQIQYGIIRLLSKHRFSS
Procedure, shortened: as §1

OR51D1 (Homo sapiens) = biological target: T5, OR51D1 (Homo sapiens) (UniProt Q8NGF3)
T5 sequence (whole entry): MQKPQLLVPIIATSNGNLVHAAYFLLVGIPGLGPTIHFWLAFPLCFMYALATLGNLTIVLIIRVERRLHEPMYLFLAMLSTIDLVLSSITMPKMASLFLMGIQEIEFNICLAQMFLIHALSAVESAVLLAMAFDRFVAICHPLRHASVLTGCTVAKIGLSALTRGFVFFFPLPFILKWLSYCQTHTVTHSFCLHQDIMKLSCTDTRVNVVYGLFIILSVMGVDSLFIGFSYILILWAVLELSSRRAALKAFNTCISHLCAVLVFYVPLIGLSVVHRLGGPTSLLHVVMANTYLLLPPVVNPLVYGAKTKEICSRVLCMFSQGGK
Procedure, shortened: as §1

OR51E1 (Homo sapiens) = biological target: T6, OR51E1 (Homo sapiens) (UniProt Q8TCB6)
T6 sequence (whole entry): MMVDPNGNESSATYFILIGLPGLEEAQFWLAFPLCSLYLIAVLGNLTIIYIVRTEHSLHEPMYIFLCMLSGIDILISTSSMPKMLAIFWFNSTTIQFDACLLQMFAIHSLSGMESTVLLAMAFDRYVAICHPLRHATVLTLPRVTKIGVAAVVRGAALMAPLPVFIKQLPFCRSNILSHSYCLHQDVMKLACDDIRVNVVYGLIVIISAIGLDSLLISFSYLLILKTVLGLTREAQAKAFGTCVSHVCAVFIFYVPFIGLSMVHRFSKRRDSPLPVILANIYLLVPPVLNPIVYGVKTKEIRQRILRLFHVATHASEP
Procedure, shortened: as §1

OR51E2 (Homo sapiens) = biological target: T7, OR51E2 (Homo sapiens) (UniProt Q9H255)
T7 sequence (whole entry): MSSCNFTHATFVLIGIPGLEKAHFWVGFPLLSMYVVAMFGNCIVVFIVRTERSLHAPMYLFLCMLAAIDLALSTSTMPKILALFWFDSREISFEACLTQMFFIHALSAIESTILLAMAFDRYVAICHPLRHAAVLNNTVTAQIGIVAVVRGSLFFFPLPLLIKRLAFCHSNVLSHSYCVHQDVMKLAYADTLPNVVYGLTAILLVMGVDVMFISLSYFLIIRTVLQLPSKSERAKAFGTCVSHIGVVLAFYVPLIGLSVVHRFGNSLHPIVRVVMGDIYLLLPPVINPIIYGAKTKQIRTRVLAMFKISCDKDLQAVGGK
Procedure, shortened: as §1

OR51G1 (Homo sapiens) = biological target: T8, OR51G1 (Homo sapiens) (UniProt Q8NGK1)
T8 sequence (whole entry): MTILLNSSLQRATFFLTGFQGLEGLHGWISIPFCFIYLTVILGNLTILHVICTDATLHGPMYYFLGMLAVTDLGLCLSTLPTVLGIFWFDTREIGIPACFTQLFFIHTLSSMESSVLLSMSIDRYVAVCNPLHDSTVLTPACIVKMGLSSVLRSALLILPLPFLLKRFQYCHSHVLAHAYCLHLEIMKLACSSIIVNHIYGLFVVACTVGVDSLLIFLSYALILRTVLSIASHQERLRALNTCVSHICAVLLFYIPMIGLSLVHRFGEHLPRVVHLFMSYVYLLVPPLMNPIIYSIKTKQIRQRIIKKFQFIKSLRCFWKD
Procedure, shortened: as §1

OR51H1 (Homo sapiens) = biological target: T9, OR51H1 (Homo sapiens) (UniProt Q8NH63)
T9 sequence (whole entry): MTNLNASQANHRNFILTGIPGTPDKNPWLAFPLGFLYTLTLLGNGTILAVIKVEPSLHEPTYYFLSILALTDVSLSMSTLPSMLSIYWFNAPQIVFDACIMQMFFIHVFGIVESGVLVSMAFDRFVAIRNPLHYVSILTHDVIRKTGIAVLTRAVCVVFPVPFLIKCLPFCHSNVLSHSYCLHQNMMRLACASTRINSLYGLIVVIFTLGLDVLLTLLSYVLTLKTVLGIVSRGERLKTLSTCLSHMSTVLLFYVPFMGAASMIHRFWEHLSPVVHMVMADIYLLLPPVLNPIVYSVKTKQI
Procedure, shortened: as §1

OR51I1 (Homo sapiens) = biological target: T10, OR51I1 (Homo sapiens) (UniProt Q9H343)
T10 sequence (whole entry): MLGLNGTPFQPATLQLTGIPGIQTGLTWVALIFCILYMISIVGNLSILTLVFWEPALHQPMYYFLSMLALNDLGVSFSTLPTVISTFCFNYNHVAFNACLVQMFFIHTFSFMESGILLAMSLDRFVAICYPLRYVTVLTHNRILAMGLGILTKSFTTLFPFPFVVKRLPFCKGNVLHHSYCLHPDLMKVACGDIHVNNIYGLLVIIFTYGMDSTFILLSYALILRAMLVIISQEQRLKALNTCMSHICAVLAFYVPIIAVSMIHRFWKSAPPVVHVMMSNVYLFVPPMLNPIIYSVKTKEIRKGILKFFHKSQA
Procedure, shortened: as §1

Measured: odorant receptor agonist call

CS
inactive: OR4X1 | OR4X2 (Homo sapiens) | OR51A2 (Homo sapiens) | OR51B2 (Homo sapiens) | OR51D1 (Homo sapiens) | OR51E1 (Homo sapiens) | OR51E2 (Homo sapiens) | OR51G1 (Homo sapiens) | OR51H1 (Homo sapiens) | OR51I1 (Homo sapiens)

CCCCOC(C)=O
inactive: OR4X1 | OR4X2 (Homo sapiens) | OR51A2 (Homo sapiens) | OR51B2 (Homo sapiens) | OR51D1 (Homo sapiens) | OR51E1 (Homo sapiens) | OR51E2 (Homo sapiens) | OR51G1 (Homo sapiens) | OR51H1 (Homo sapiens) | OR51I1 (Homo sapiens)

CCC(C)=O
inactive: OR4X1 | OR4X2 (Homo sapiens) | OR51A2 (Homo sapiens) | OR51B2 (Homo sapiens) | OR51D1 (Homo sapiens) | OR51E1 (Homo sapiens) | OR51E2 (Homo sapiens) | OR51G1 (Homo sapiens) | OR51H1 (Homo sapiens) | OR51I1 (Homo sapiens)
